The values that follow come from paper PMC11927960, “Multiparameter ranking of carbazoles for anti-trypanosome lead discovery” (Frontiers in drug discovery, 2024).

Data set [1] is described as follows: Plasma pharmacokinetics after single oral dose. Format: in vivo, Swiss Webster mice. To be noted: female mice Cmax vs EC50 of T. brucei AnTat1.1. On the procedure:
The plasma concentration and tissue distribution of drugs were determined by Absorption Systems. […] Blood and brain samples were obtained at 1, 2, 4, and 6 h post-dosing, and plasma and brain concentrations of the drug were determined using LC-MS/MS. Stock standards for calibration were prepared in a matrix comprising equal volumes of water and mouse blood containing K2-EDTA as an anticoagulant. Working solutions were prepared in 50:50 acetonitrile–water and added to the matrix to final concentrations of 1,000, 500, 100, 50.0, 10.0, 5.00, 1.00, and 0.500 ng/mL for all compounds. Pharmacokinetic parameters were determined using Phoenix WinNonlin (v8.0) software with sparse sampling. Maximum plasma concentration (Cmax) and the time to reach maximum plasma concentration (tmax) were determined from the four data points. The area under the time concentration curve (AUClast) was calculated using the linear trapezoidal rule with calculation to a 6-h data point. Plasma half-life (t1/2) was calculated from 0.693/slope of the terminal elimination phase. Samples below the limit of detection (0.500 ng/mL) were treated as 0.

Data set [2] in a line: Curaxin HAT lead efficacy (CHLE) score. Particulars: for CHLE Score: empirical multiparameter formula of Table 5; for DTC90: AUC0–6h: ratio used for CHLE score, AUC0–6h from mouse PK, DTC90 from T. brucei.

In the case of `CC(=O)c1cc2c3cc(C(C)=O)c(O)cc3n(CCCN(C)C)c2cc1O` [CBL0174, 1-[6-acetyl-9-[3-(dimethylamino)propyl]-2,7-dihydroxy-carbazol-3-yl]ethanone], the “Cmax fold higher than EC50 of T. brucei AnTat1.1” value in data set [1] was 28 fold. Moreover, in data set [2], the “CHLE Score” value was 41.3 and the “DTC90: AUC0–6h” value was found to be 5.4.

For `CC(=O)c1cc2c3cc(C(C)=O)c(O)cc3n(CCNC(C)C)c2cc1O` [CBL0187, 1-[6-acetyl-2,7-dihydroxy-9-[2-(isopropylamino)ethyl]carbazol-3-yl]ethanone], the “Cmax fold higher than EC50 of T. brucei AnTat1.1” value in data set [1] turned out to be 31 fold. For the same compound, in data set [2], the “CHLE Score” value stood at 17.8 and the “DTC90: AUC0–6h” value turned out to be 5.3.
